The nature of this test: qHTS Assay for Lipid Storage Modulators in Drosophila S3 Cells.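 As to cell number change: cells counted by Cell Tracker Red CMTPX staining in the red channel.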 The following applies: BODIPY lipid droplet fluorescence, 18-24 h; for cell number change: measured here: cell count max response, cells fed with added oleic acid. A digest of the protocol:
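Drosophila S3 cells got compounds at several concentrations plus oleic acid (400 uM solution). Laser-scanning cytometry with 488 nm excitation read lipid droplets at 500-530 nm and cells at 575-640 nm. Percent activity was relative to 20 uM Triacsin C.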
(qHTS replaces the single test concentration by a dilution series.)

The mark [1] stands for this setting: measured here: lipid fluorescence (Fed channel) AC50, cells fed with added oleic acid.
The mark [2] stands for this setting: measured here: cell number channel AC50, cells fed with added oleic acid.

Drawing on PubChem BioAssay AID2685 (National Center for Advancing Translational Sciences (NCATS), 2010), this text covers cell number change and AC50 for 63 molecules.

Some of the results follow. These are further read-outs of the screen, such as a control signal, another cell line or another target. No call is given for them. Compounds called inactive in the main read-out are mostly missing here. Words in brackets tell the shape of the fitted curve; partial curves, single points and poor fits give uncertain potencies.

With `CC1CN(C(=S)Nc2cccc(F)c2)CC(C)O1` (stereo unspecified), the cell number change worked out at 18.1%. By AC50 is commonly meant the concentration giving half of the maximal activity seen. Read a high AC50 as weaker potency. In the case of `CCC(C)[C@H](NC(=O)OC(C)(C)C)C(=O)N/N=C/c1cccc2nccnc12` (stereo partly specified), the cell number change was 18.4%. The AC50 under setting [1] is 6.51 µM [rising, single point].

For `CCN(c1ccccc1)c1nc(=O)c2cccnc2s1`, the AC50 under setting [2] was 0.82 µM [rising, single point]. On to `S=C(NCCc1c[nH]c2ccccc12)NC1CCCC1`, for which the cell number change came out at 41.8%.

As for `Cc1ccc(NC2=NCCCCC2)cc1`, the cell number change is 19.7%.

As for `CC(C)CC(N=Cc1c(O)c2ccccc2oc1=O)C(=O)O` (stereo unspecified), the AC50 under setting [1] is 0.82 µM [rising, single point].

Take `Cc1[nH]n(-c2ccccc2)c(=O)c1C(c1ccccc1C(=O)O)c1c(C)[nH]n(-c2ccccc2)c1=O`: the cell number change worked out at 12.1%. Moreover, the AC50 under setting [1] was 0.116 µM [falling, full curve, poor fit]. As to `COc1ccc(NC(=O)CN(C)S(=O)(=O)c2ccc(Cl)cc2)cc1Cl`, the cell number change is 1.14%. Besides, the AC50 under setting [1] was 0.00461 µM [falling, full curve, poor fit]. Turning to `CN(Cc1cccs1)C(=O)c1cccc(S(=O)(=O)N2CCCCCC2)c1`, the cell number change was 48.6%. The half-maximal activity concentration (AC50) under setting [2] is 32.6 µM [rising, single point]. Moreover, the concentration at half-maximal activity (AC50) under setting [1] was 25.9 µM [rising, single point]. In the case of `Cc1cc(C)c(OCCN2CCCC2)c(Cl)c1`, the cell number change is 0.676%. The AC50 under setting [1] was 1.16 µM [falling, partial curve].

Take `Cc1ccc(C(=O)N2CC(=O)Nc3ccc(C)cc3C2c2ccccc2)cc1` (stereo unspecified): the AC50 under setting [2] is 2.91 µM [rising, single point].

In the case of `O=C(NC1=NCCS1)c1ccc(Br)s1`, the cell number change is -18.8%. In addition, under setting [1], the AC50 was 29.1 µM [rising, single point]. As for `COc1ccc(C(=O)CCC(=O)NCc2cc(OC)cc(OC)c2)cc1`, the cell number change was -5.65%. Under setting [1], the half-maximal activity concentration (AC50) was 6.51 µM [falling, full curve]. For the molecule `Cc1ccc2nc(-c3ccc(SCC(=O)Nc4nnc(C)s4)nc3)[nH]c2c1`, the cell number change was -20.5%. Under setting [2], the half-maximal activity concentration (AC50) was 2.91 µM [falling, full curve, poor fit]. Besides, under setting [1], the concentration at half-maximal activity (AC50) was 20.6 µM [falling, partial curve]. For `Cc1ccccc1C(=O)NNS(=O)(=O)c1cccc([N+](=O)[O-])c1`, the cell number change was -26.1%.

Turning to `CCCN1CCN(CCCNC(=O)Cn2nc(C)n3c(cc4cc(OC)ccc43)c2=O)CC1`, under setting [1], the AC50 was 29.1 µM [falling, single point].

Regarding `COc1cccc(CCNC(=O)COc2cccc3c2OC(C)(C)C3)c1`, the cell number change is -50%. Moreover, the AC50 under setting [2] was 29.1 µM [falling, single point]. For the same molecule, the AC50 under setting [1] is 0.146 µM [rising, full curve, poor fit]. With `Clc1ccc2c(N3CCCC3)ccnc2c1`, the AC50 under setting [2] was 4.11 µM [falling, single point].

Turning to `CCCCc1nnc(NC(=O)c2ccc3c(=O)n4c(nc3c2)CCC4)s1`, the cell number change was determined as 22.9%. As for `COC(=O)C1=C(C)NC(C)=C(C(=O)OC)C1C(=O)OC(C)C(=O)c1ccccc1` (stereo unspecified), the cell number change is -25%. Moreover, the AC50 under setting [1] is 2.06 µM [falling, partial curve, poor fit]. For the molecule `O=[N+]([O-])c1ccc(Cl)c(/C=N/n2c(C3CCCCC3)n[nH]c2=S)c1`, under setting [1], the concentration at half-maximal activity (AC50) is 0.146 µM [rising, full curve, poor fit]. In the case of `CCOc1ccc(OCC)c(S(=O)(=O)NCc2ccc3c(c2)OCO3)c1`, the AC50 under setting [1] is 0.00461 µM [rising, full curve, poor fit]. For the molecule `COc1cccc(/C=C2\SC(=S)N(CCC(=O)Nc3ccc(O)cc3)C2=O)c1`, the cell number change is -6.38%. For the same molecule, the AC50 under setting [1] is 32.6 µM [falling, single point]. `CCN(CC)C(=O)CSc1nc(-c2ccco2)cc(C(F)(F)F)c1C#N`: the cell number change is -47.1%. Besides, the AC50 under setting [2] was 11.6 µM [falling, partial curve, poor fit]. The AC50 under setting [1] is 14.6 µM [falling, partial curve]. With `Cc1ccccc1NC(=O)C(C)Sc1nnc(-c2ccncc2)n1CC1CCCO1` (stereo unspecified), under setting [1], the AC50 is 0.112 µM [falling, full curve, poor fit]. As to `CC(Oc1ccc(Cl)cc1Cl)C(=O)Nc1ccc(N2CCN(C)CC2)cc1` (stereo unspecified), the cell number change is -37.7%. In addition, under setting [2], the concentration at half-maximal activity (AC50) is 29.1 µM [falling, single point]. As for `COc1cccc(NC(=O)CSCc2n[nH]c(=O)[nH]2)c1`, the cell number change was -4.37%. Besides, under setting [1], the half-maximal activity concentration (AC50) was 29.1 µM [falling, single point]. `CCC1COC(c2cccn2Cc2ccccc2Cl)=N1` (stereo unspecified): the cell number change is -20.8%. Moreover, under setting [1], the half-maximal activity concentration (AC50) was 0.058 µM [falling, full curve, poor fit]. In the case of `COc1cccc(-n2cnnc2SC(C)C(=O)NC2CCCC2)c1` (stereo unspecified), the cell number change is -12.9%. The half-maximal activity concentration (AC50) under setting [1] is 0.146 µM [falling, full curve, poor fit]. In the case of `Cn1c(=O)oc2cc(S(=O)(=O)N3CCN(c4ccc(F)cc4)CC3)ccc21`, the AC50 under setting [1] was 0.82 µM [falling, single point].

Turning to `CC1CCC/C(=N\NC(=O)COc2ccc(Cl)cc2Cl)C1` (stereo unspecified), the cell number change turned out to be 47.7%. Also, the AC50 under setting [2] is 23.1 µM [rising, single point]. Take `N/C(=N\OC(=O)c1csnn1)c1ccc(C(F)(F)F)cc1`: the cell number change stood at 34.7%. Also, the concentration at half-maximal activity (AC50) under setting [2] is 7.31 µM [rising, full curve, poor fit].

For the molecule `CCC(C)NS(=O)(=O)c1ccc(S(=O)(=O)N(CCc2ccc(OC)c(OC)c2)Cc2cccs2)cc1` (stereo unspecified), the cell number change was -16.2%. The AC50 under setting [1] was 18.4 µM [falling, single point]. For `NS(=O)(=O)c1ccc(NC(=O)C2CCCO2)cc1` (stereo unspecified), the cell number change was -44.8%. The AC50 under setting [2] is 16.4 µM [falling, single point].

Turning to `CCN(c1ccccc1)S(=O)(=O)c1ccc(F)c(C(=O)O)c1`, the cell number change came out at 7.34%. `CC(C)(C)NC(=O)C(Cc1ccccc1)NS(=O)(=O)c1ccc2c(c1)CCC(=O)N2` (stereo unspecified): the cell number change came out at 159%. Besides, the half-maximal activity concentration (AC50) under setting [2] was 18.4 µM [rising, partial curve]. The AC50 under setting [1] is 20.6 µM [rising, partial curve]. In the case of `COc1cc(CNc2ccc3c(c2)OCCO3)ccc1OCC(N)=O`, the cell number change came to 0.722%. Also, the AC50 under setting [1] is 0.92 µM [falling, full curve, poor fit]. In the case of `CCOc1ccc(C(C)(C)C)cc1S(=O)(=O)N1CC(C)OC(C)C1` (stereo unspecified), the cell number change is 7.94%. Take `CC1CCCC(NC(=O)COC(=O)c2ccccc2NC(=O)c2ccco2)C1C` (stereo unspecified): the cell number change came out at 66.9%. The half-maximal activity concentration (AC50) under setting [2] is 0.92 µM [rising, partial curve]. The AC50 under setting [1] was 0.651 µM [rising, full curve]. Take `Cc1cc(OCC(=O)NCCN2CCOCC2)cc(C)c1Cl`: the cell number change was 14.4%. In addition, the AC50 under setting [1] is 29.1 µM [rising, partial curve].

Take `Cc1cc(C)n(-c2nc3ccccc3nc2N2CCC(C)CC2)n1`: the cell number change is -24.5%. For the same molecule, under setting [2], the concentration at half-maximal activity (AC50) was 2.59 µM [rising, single point]. Under setting [1], the concentration at half-maximal activity (AC50) is 2.31 µM [rising, partial curve].

For the molecule `Cc1ccc(NS(=O)(=O)c2c(C(=O)N3CCCCCC3)c(C)n(C)c2C)c(C)c1`, the cell number change was 8.49%. Take `O=C(NCc1ccco1)C12CN(Cc3ccccc3)CC1C(c1cccc([N+](=O)[O-])c1)=NO2` (stereo unspecified): the cell number change is -16.6%. Further, the half-maximal activity concentration (AC50) under setting [2] was 3.66 µM [rising, single point]. Regarding `O=S(=O)(c1ccc(Cl)cc1)c1nc(-c2ccco2)oc1N1CCCCC1`, the cell number change was -3.06%. Under setting [1], the AC50 is 32.6 µM [falling, single point].

Take `O=C(c1ccco1)N1CCN(Cc2cc(=O)c(OCc3cccc(F)c3)co2)CC1`: the cell number change came to 44.6%. Besides, the AC50 under setting [2] was 13 µM [rising, partial curve, poor fit]. In the case of `CC(=O)c1cccc(NC(=O)CN2CCc3cc4c(cc3C2C)OCCCO4)c1` (stereo unspecified), the cell number change was -2.69%.

`CCn1c2ccccc2c2cc(NC(=O)COC(=O)Cc3cn4ccsc4n3)ccc21`: the cell number change was -8.09%. Also, the AC50 under setting [2] is 4.11 µM [rising, single point]. With `Cc1cnc(C(=O)OCC(=O)N(C)CC(=O)Nc2ccccc2Cl)cn1`, the cell number change is -6.73%. For the same molecule, the half-maximal activity concentration (AC50) under setting [1] is 23.1 µM [rising, single point]. For the molecule `CSc1ccccc1NC(=O)c1ccco1`, the cell number change stood at 18.4%. In addition, the concentration at half-maximal activity (AC50) under setting [1] was 3.66 µM [falling, single point]. In the case of `O=C(Nc1ccc(S(=O)(=O)NCC2CCCO2)cc1)c1ccc(Cl)cc1[N+](=O)[O-]` (stereo unspecified), the cell number change is -3.08%. Under setting [1], the half-maximal activity concentration (AC50) is 5.17 µM [falling, single point]. Take `COc1ccc(CCNC(=O)CSCc2ccc(Cl)cc2)cc1OC`: the cell number change worked out at 29.6%. Also, the concentration at half-maximal activity (AC50) under setting [2] was 4.61 µM [rising, full curve, poor fit]. Turning to `CC(=O)Nc1ccc(S(=O)(=O)NCCCN2CCOCC2)cc1`, the cell number change is -17.1%. In the case of `CC(=O)c1cccc(NC(=O)CSc2nnc(C(C)N(C)C)n2-c2ccc(F)cc2)c1` (stereo unspecified), the cell number change was determined as 28.6%. Also, under setting [1], the AC50 is 0.13 µM [rising, partial curve, poor fit]. On to `CC(C)c1ccc(NC(=O)C2CC(=O)Nc3nc4ccccc4n32)cc1` (stereo unspecified), for which the cell number change was -17.2%. In addition, under setting [1], the AC50 is 0.411 µM [falling, full curve, poor fit]. Turning to `CCn1c(=O)n(CC)c2cc(S(=O)(=O)NCCOc3ccccc3)c(C)cc21`, the cell number change is -8.91%.

For the molecule `O=C(Cc1ccc(-n2cnnn2)cc1)NC12CC3CC(CC(C3)C1)C2`, the cell number change was determined as 17.5%. The AC50 under setting [1] was 3.66 µM [falling, full curve]. `C=C(C)CSc1nc2nc(C)cc(C)n2n1`: the cell number change was 19.2%. Further, under setting [1], the half-maximal activity concentration (AC50) was 7.31 µM [rising, partial curve]. Consider `Oc1ccc(-c2nc3ncccn3c2Nc2ccc3c(c2)OCO3)cc1`, for which the cell number change is 17.7%. Besides, the half-maximal activity concentration (AC50) under setting [1] was 5.8 µM [rising, partial curve].

For `CCCOC(=O)CSC1=C(C#N)C(c2ccccc2Cl)CC(=O)N1` (stereo unspecified), the cell number change was -1.66%.

As to `Cc1ccc(N=C2NC(=O)/C(=C/c3cccs3)S2)cc1C`, the cell number change was 36.8%. Moreover, the concentration at half-maximal activity (AC50) under setting [2] was 8.2 µM [rising, partial curve]. For the same molecule, under setting [1], the half-maximal activity concentration (AC50) is 23.1 µM [rising, partial curve]. As for `Cc1ccc(N(CC(O)CN2CCOCC2)S(=O)(=O)c2ccc([N+](=O)[O-])cc2)cc1` (stereo unspecified), the cell number change was -1.61%. Regarding `O=C(N/N=C/c1ccccn1)c1cccs1`, the AC50 under setting [1] is 0.82 µM [falling, full curve]. Regarding `O=C(CSc1n[nH]c(-c2ccccc2)n1)Nc1ccc(F)cc1F`, the cell number change was -12.7%. Under setting [2], the half-maximal activity concentration (AC50) was 0.0231 µM [falling, full curve, poor fit].
